The other results are listed elsewhere or left out. These are further read-outs of the screen, such as a control signal, another cell line or another target. No call is given for them. Most of these compounds were active or inconclusive in the main read-out, so they are no random draw. Potencies come from curve fits of mixed quality, noted in brackets.
Test: qHTS Assay for Modulators of Lamin A Splicing
Conditions: HeLa LMNA splicing GFP/RFP minigene ratio, 48 h
How it was run: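 Read-out is the ratio of GFP to DsRed2 object intensity, acquired by 488 nm laser-scanning cytometry on HeLa lamin A-EGFP minigene reporter cells. Compound incubation 48 hrs at 37 °C in Opti-MEM with 2% FBS; DMSO 0.5% final.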

[1] = measured here: RFP viability control channel
[2] = measured here: GFP splicing reporter channel

Compound	AC50 [1]	AC50 [2]
COc1ccc(-n2nnc3c(=O)n(CC(=O)N4CCCC4)cnc32)cc1	0.0251 µM [falling, partial curve, poor fit]	–
O=c1c2c(-c3ccccc3)csc2ncn1/N=C/c1cccc([N+](=O)[O-])c1O	14.1 µM [rising, partial curve]	–
O=C(CCCc1c[nH]c2ccccc12)N1CCN(S(=O)(=O)c2cccs2)CC1	22.4 µM [rising, single point]	11.2 µM [rising, single point]
O=C(CCC1CCCC1)N1CCc2c([nH]c3ccccc23)C1c1ccc(Cl)cc1 (stereo not given)	–	5.62 µM [falling, full curve, poor fit]
CCOC(=O)n1ccn(C)c1=S	8.91 µM [falling, single point]	14.1 µM [falling, single point]
Nc1cc(N)nc(SCc2nnnn2-c2ccc(Cl)cc2)n1	20 µM [rising, single point]	22.4 µM [rising, single point]
COc1cc(OC)nc(-n2ncc(Br)c(Br)c2=O)n1	15.8 µM [rising, partial curve]	10 µM [rising, partial curve]
COCCCNC(=O)c1ccc(Cn2c(=O)c3ccccc3n(CC(=O)NCCc3ccc(OC)c(OC)c3)c2=O)cc1	0.126 µM [falling, full curve]	–
CCOC(=O)CN1C(=O)C(Sc2n[nH]c(-c3cccc(C)c3)n2)CCc2ccccc21 (stereo not given)	11.2 µM [rising, partial curve]	8.91 µM [rising, partial curve]
CN1CCCCCC1=NC1=C(C#N)CCCC1	31.6 µM [rising, single point]	–
CCCN1C=CC(=C/C=C(\C#N)C(=O)OCC)C=C1	15.8 µM [falling, single point]	17.8 µM [falling, single point]
CCc1c(-c2n[nH]c(=S)n2Cc2ccccc2)csc1C	–	15.8 µM [rising, single point]
NS(=O)(=O)c1cc2c(cc1Cl)NC(CSCc1ccccc1)=NS2(=O)=O	–	0.00501 µM [falling, full curve, poor fit]
COc1ccc(Nc2ncnc3sc4c(c23)CCCC4)cc1	–	0.631 µM [rising, single point]
CC(C)(C)c1ccc(C2CC2C(=O)N/N=C\c2ccc[nH]2)cc1 (stereo not given)	6.31 µM [falling, partial curve, poor fit]	5.62 µM [falling, partial curve, poor fit]
O=C(/C=C\NCC(=O)c1ccccc1)c1ccc2ccccc2c1	12.6 µM [rising, partial curve]	12.6 µM [rising, single point]
CC(C)CC(NC(=O)c1ccccc1NC(=O)c1ccccc1)C(=O)O (stereo not given)	22.4 µM [falling, single point]	–
CCN(CC)S(=O)(=O)c1ccc2c(c1)N(CC(=O)N1CCN(c3cccc(C)c3C)CC1)C(=O)CO2	–	25.1 µM [falling, single point]

Compound	AC50 [1]	AC50 [2]
O=Cc1cn(-c2ccccc2)nc1-c1ccc2c(c1)OCCO2	14.1 µM [rising, single point]	–
COc1ccc(/C=C/C(=O)Nc2ccc(-n3nncc3-c3ccc(OC)c(OC)c3)cc2)cc1OC	7.94 µM [rising, partial curve]	–
O=C(CSc1n[nH]c(-c2ccccc2Cl)n1)NCCc1ccccc1	–	1 µM [rising, full curve]
C=C(C)COc1ccc(-c2[nH]ncc2-c2ccccc2)c(O)c1	11.2 µM [falling, single point]	28.2 µM [falling, single point]
C/C(=N\N1C(=O)c2ccccc2NC1c1ccccc1)c1ccccc1O (stereo not given)	31.6 µM [falling, single point]	35.5 µM [falling, single point]
O=C(NCC1CCCO1)c1cc(C(=O)C2CCCCC2)c[nH]1 (stereo not given)	–	0.0316 µM [rising, full curve, poor fit]
CCOC(=O)c1[nH]c(C)c(C(=O)N2CCN(c3ccc(F)cc3)CC2)c1C	4.47 µM [rising, single point]	–
Cc1ccc(NC(=S)NNC(=O)c2ccccc2OC(F)F)cc1	7.08 µM [rising, single point]	–
Cc1nn2c(=O)cc(COC(=O)c3cccc(NC(=O)COc4ccccc4C)c3)nc2s1	35.5 µM [falling, single point]	35.5 µM [falling, single point]
O=C(CSc1nnc(COc2ccc(Br)cc2)o1)N1CCOCC1	3.98 µM [falling, full curve]	3.55 µM [falling, full curve]
COc1ccc(C(=O)N2CCN(c3nc4cc(C)ccc4cc3C#N)CC2)c(OC)c1	20 µM [rising, partial curve, poor fit]	–
CCNC(=O)c1sc2cc(C)ccc2c1Cl	0.0355 µM [falling, full curve, poor fit]	0.398 µM [falling, partial curve]
CC(C)C[C@H](NC(=O)Nc1cccc(C(F)(F)F)c1)C(=O)O	–	0.398 µM [falling, partial curve]
Cc1c(C2C(C#N)=C(N)N(c3cccc([N+](=O)[O-])c3)C3=C2C(=O)CCC3)cnn1C (stereo not given)	0.0224 µM [falling, full curve, poor fit]	–
CCN(CC)CCSc1c(C(C)C)cnc2c1c(=O)n(C)c(=O)n2C	–	0.708 µM [rising, single point]
O=S(=O)(c1ccc2nc(SCc3cccc(Cl)c3)[nH]c2c1)N1CCOCC1	35.5 µM [rising, single point]	3.55 µM [rising, single point]
O=C(CN1C(=O)COc2ccc(S(=O)(=O)NC3CCCC3)cc21)NCc1ccc(Cl)cc1	0.178 µM [rising, full curve, poor fit]	0.158 µM [rising, full curve, poor fit]

Structures above that have an aryl methoxy group (6):
Compound	AC50 [1]	AC50 [2]
COc1ccc(-n2nnc3c(=O)n(CC(=O)N4CCCC4)cnc32)cc1	0.0251 µM [falling, partial curve, poor fit]	–
COc1cc(OC)nc(-n2ncc(Br)c(Br)c2=O)n1	15.8 µM [rising, partial curve]	10 µM [rising, partial curve]
COCCCNC(=O)c1ccc(Cn2c(=O)c3ccccc3n(CC(=O)NCCc3ccc(OC)c(OC)c3)c2=O)cc1	0.126 µM [falling, full curve]	–
COc1ccc(Nc2ncnc3sc4c(c23)CCCC4)cc1	–	0.631 µM [rising, single point]
COc1ccc(/C=C/C(=O)Nc2ccc(-n3nncc3-c3ccc(OC)c(OC)c3)cc2)cc1OC	7.94 µM [rising, partial curve]	–
COc1ccc(C(=O)N2CCN(c3nc4cc(C)ccc4cc3C#N)CC2)c(OC)c1	20 µM [rising, partial curve, poor fit]	–
